Data on four molecules can be found in article PMC10567574, “piRNA processing by a trimeric Schlafen-domain nuclease” (Nature, 2023).

The target of experiment [1] is T1, TOFU-2(E216A)-HA (C. elegans (endogenous in young adult worms)) (UniProt Q19614).
T1 sequence: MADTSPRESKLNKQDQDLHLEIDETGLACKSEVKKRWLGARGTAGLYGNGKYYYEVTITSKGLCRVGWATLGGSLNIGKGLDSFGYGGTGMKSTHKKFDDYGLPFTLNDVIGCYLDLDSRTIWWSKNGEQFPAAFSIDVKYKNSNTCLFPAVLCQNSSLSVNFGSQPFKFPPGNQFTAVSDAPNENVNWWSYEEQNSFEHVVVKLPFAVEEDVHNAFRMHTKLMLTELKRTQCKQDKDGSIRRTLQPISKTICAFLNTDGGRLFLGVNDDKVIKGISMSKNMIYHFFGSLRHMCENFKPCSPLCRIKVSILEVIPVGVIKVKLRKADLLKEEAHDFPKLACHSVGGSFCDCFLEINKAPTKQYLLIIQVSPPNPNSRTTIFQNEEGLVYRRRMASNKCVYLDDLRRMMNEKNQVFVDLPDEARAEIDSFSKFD
Kind of experiment: affinity purification with mass spectrometry; anti-HA (12CA5) immunoprecipitation from young adult C. elegans lysate (0.75 mg protein), protein G magnetic beads, 25 mM Tris HCl pH 7.5, 150 mM NaCl, 1.5 mM MgCl2, 4 C; label-free quantification against wild type, quadruplicates.

For experiment [2], the target named is T2, TOFU-2-HA (endogenous TOFU-2 tagged with a human influenza haemagglutinin tag) (C. elegans (endogenous in young adult worms)) (UniProt Q19614).
T2 sequence: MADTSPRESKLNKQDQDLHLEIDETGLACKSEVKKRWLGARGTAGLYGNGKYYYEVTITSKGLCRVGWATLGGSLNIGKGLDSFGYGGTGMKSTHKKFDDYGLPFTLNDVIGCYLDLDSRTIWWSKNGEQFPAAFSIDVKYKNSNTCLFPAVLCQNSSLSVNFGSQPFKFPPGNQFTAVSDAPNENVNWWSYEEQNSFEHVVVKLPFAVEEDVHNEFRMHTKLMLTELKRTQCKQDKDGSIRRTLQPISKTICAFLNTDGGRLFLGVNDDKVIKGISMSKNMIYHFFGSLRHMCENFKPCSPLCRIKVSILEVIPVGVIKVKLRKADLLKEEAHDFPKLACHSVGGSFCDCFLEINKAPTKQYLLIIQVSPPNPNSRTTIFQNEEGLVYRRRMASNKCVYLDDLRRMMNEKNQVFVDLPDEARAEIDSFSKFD
Described as above.

These are yes or no findings as the source states them, for the method shown. Binding seen in cells or lysates may run through a third protein. These calls come from enrichment with a bait or labelling near it, and not all partners need be listed. No binding means not detected with the bait. Tags and fused reporters may be left off the sequences shown.

B1: PRG-1 (endogenous) (protein, UniProt P90786 1-824)
chain: MASGSGRGRGRGSGSNNSGGKDQKYLGTIQPDLFIRQQGQSKTGSSGQPQKCFANFIPIEMTQSDYSIYQYHVEFEPTVDSKANREKMLRDNNVTDEIGHHFVFDGMILYLKEEWEQNQMIEVQHPIDRSLICIRFKQTNRFLVDDPQTINIFNTIIRRSFDALQLTQLGRNYFNWGDSRAVPDYNMSILPGYETAIRMYEENFMLCVENRFKMVREESMYILFHKELRSCQNNPQRVQEKMNEMYGGTTIITRYNNKLHRYTRLDYSISPLSEFVKDGQSITLKEYFKNQYGIEITVDDQPIIISEGKPKQPGEPPQVSYIVPELCFPTGLTDEMRKDFKMMKEIAKHTRMSPQQRLVESRKLIVDLSKNEKVMECFKYWGISLGQDLANVQARVLKSEPLQGKKTYEGKQAEWARGVKECGIYRGSNMTNWIVIGPGSGNSGLLSQKFIEEARRLGKILQVQLGEPMCVPIRGISPNDYLEGVKGAIKQVDGEDIHMLVVMLADDNKTRYDSLKKFLCVECPIPNQCVNLRTLAGKSKDGGENKNLGSIVLKIVLQMICKTGGALWKVNIPLKNTMIVGYDLYHDSTLKGKTVGACVSTTSNDFTQFYSQTRPHENPTQLGNNLTHFVRKALKQYYDSNDQTLPSRLILYRDGAGDGQIPYIKNTEVKLVRDACDAVTDKAAELSNKVQEKIKLAFIIVTKRVNMRILKQGSSLDNAINPQPGTVVDTTVTRPERMDFYLVPQFVNQGTVTPVSYNIIHDDTDLGPDKHQQLAFKLCHLYYNWQGTVRVPAPCQYAHKLAFLTAQSLHDDANGCLRDKLFFL
As to B1, the binding result in experiment [1] and in experiment [2] was “no binding” throughout.

B2: TOFU-1 (endogenous) (protein, UniProt O17608 1-373)
chain: MAALFEENDSYSDSENEEDFSGFLSEIEENENEDEFENDDEFEDDDELENVDELEDDELSSEEVDIPSENEVIVELHDGQAEVEESLLDALLGKALAGDQMNSRIEGLFEDLDSSVEPDIIDRSELEDVDSGISVGAVSSSSAETQASDAKCKNKDAFDMSSLKKYMQYITEEEHAVSVEDIPDFASKKNVYGTSFNVRNGIMSRPPRFEFARHDQRWIDSCVSMAYEKDKTLKELITLGKLTTTVKAGAKIEFRTKFTDVHIRSADEINLMETHDIQQIIRDALNSKRLAVVLFGIGKDGKVTGCHMGPGQQDNLRLALDTAVQTEFAPPIENILDVVDMNFVPVEEMDETFLIVIRVKQLRNQVYRLESSV
Turning to B2, the binding result in experiment [1] and in experiment [2] was “binds” in each case.

B3: SLFL-3 (C35E7.8, endogenous) (protein, UniProt O61766 1-383)
chain: MDSGDFSPMQSNFSLGFMSFEDIPEDARTTEMIDKIVFEEDKEYDHTQDSFRYGRVTTGVSYNLVTGKIPKTVFEQVKAKDDENDNVEFEMEHLEDKETAHKTQTFDELYESQMPKYFDYQSNFSDVNGIWTLLFDQNHYEKMSTFELQAAICAALNSKHFMMICVGIDAFNAVTGVEMSAKDRVVFRMALTRAVAGEFQPPLVKVAPKQLTGVSPMKRDISEVTSSIDVLFVPVIGVTDEVENNRFLIVVRVKEISDKVYQISSGRIYNEQEGRVVEMSDMNEAFHKLIVEKSISDIQTRRGSMFMLEPEPFLEDSAVIFTESNEIPSENHEISRVHVKNCTERSLSQSLLNLLDIQNIGWIFFGTALSFCIYNNAIKPLVK
On to B3, for which, in experiment [2], the binding result is recorded as “binds”.

B4: SLFL-4 (F36H12.2, endogenous) (protein, UniProt O76720 1-352)
chain: MIDKIVFEEDEEYDLTQDSFRYGRVTTGASYNLVTGKIPETVLEQVKAKDDENDDVEFEMDHLEDKEAVQKTKTFDELYESQMPKYFEYQSNFSEVNGIWTLLFDQNHYENMSTFELQAAICAALNSKHYMMICVGIDAFNAVTGVEMSAKDRVVFRMALTRAVAGEFQPPLVKVAPKQLTGVSPMKRDISEVTSSIDVLFIPVIGVTDEVENNRFLIVVRVKEISDKVYQISSGRIYNELEGRVVEMSDMNEAFHKLIVEQSISDIQTRRGSMFMLEPEPFLEDSPVIFTGSKEILRENHEIPNILKENSTERSLSQSLLNLLDIQNIGWIFFGTALSCCIYNNAIKPLVK
For B4, the binding entry in experiment [2] is given as “binds”.
